According to PMC7718874, “Coupling of H3K27me3 recognition with transcriptional repression through the BAH-PHD-CPL2 complex in Arabidopsis” (Nature Communications, 2020):
No constants are given. Whether binding was seen depends on the method and setting. In cells and extracts the contact can be indirect. A yes stands for co-enrichment or nearness to the bait. Other partners may have been found. Where a sequence is shown, tags or fusion partners need not be part of it.

T1: CPL2, epitope-tagged in transgenic Arabidopsis (Arabidopsis) (UniProt Q5YDB5)
T1 sequence: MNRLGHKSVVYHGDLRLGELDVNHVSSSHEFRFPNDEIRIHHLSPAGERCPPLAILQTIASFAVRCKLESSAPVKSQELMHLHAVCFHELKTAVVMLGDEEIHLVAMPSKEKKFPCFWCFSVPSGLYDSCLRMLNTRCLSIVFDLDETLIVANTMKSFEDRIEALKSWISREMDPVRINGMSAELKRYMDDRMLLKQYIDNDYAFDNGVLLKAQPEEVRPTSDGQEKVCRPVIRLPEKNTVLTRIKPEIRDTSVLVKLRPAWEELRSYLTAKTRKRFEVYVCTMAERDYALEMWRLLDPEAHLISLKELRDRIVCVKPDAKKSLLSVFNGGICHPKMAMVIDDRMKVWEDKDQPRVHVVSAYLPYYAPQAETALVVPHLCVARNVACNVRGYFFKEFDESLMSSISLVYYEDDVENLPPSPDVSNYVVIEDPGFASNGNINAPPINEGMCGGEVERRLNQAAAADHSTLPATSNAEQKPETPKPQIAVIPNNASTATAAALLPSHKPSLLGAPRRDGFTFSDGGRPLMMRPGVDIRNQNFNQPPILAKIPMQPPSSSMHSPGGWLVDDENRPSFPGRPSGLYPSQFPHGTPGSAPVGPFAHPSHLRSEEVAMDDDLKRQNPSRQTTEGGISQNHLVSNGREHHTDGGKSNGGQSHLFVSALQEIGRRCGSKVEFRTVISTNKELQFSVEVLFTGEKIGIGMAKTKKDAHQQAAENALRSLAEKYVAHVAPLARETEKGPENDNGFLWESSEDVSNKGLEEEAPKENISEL

T2: AIPP2, epitope-tagged in transgenic Arabidopsis (Arabidopsis) (UniProt F4IYH6)
T2 sequence: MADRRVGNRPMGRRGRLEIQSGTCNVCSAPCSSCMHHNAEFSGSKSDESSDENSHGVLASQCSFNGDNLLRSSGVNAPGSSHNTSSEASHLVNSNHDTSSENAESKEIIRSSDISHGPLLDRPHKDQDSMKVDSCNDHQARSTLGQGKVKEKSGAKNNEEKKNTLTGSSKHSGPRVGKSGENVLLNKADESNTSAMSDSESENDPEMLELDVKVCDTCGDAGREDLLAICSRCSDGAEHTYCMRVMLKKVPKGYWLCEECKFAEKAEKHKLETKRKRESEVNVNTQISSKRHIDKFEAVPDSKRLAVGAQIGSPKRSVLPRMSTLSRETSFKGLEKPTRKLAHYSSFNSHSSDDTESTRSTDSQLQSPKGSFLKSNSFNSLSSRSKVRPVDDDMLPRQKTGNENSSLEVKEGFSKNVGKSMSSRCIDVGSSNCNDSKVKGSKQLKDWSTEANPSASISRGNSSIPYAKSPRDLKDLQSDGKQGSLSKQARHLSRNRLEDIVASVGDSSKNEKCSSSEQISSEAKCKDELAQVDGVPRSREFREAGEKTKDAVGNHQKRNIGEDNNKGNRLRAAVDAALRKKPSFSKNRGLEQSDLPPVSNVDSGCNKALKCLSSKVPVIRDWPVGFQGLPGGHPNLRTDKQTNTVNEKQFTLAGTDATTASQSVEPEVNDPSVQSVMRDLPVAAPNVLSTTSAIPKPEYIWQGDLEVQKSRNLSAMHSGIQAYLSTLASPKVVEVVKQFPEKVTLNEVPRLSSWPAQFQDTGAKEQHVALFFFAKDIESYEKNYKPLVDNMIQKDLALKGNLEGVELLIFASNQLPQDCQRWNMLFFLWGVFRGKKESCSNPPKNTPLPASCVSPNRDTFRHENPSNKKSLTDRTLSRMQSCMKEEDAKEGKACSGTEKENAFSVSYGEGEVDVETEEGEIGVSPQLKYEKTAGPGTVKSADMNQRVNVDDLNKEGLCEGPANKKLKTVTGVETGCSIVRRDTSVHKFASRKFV

T3: PARALOG OF AIPP2 (PAIPP2), epitope-tagged in transgenic Arabidopsis (Arabidopsis) (UniProt F4KE59)
T3 sequence: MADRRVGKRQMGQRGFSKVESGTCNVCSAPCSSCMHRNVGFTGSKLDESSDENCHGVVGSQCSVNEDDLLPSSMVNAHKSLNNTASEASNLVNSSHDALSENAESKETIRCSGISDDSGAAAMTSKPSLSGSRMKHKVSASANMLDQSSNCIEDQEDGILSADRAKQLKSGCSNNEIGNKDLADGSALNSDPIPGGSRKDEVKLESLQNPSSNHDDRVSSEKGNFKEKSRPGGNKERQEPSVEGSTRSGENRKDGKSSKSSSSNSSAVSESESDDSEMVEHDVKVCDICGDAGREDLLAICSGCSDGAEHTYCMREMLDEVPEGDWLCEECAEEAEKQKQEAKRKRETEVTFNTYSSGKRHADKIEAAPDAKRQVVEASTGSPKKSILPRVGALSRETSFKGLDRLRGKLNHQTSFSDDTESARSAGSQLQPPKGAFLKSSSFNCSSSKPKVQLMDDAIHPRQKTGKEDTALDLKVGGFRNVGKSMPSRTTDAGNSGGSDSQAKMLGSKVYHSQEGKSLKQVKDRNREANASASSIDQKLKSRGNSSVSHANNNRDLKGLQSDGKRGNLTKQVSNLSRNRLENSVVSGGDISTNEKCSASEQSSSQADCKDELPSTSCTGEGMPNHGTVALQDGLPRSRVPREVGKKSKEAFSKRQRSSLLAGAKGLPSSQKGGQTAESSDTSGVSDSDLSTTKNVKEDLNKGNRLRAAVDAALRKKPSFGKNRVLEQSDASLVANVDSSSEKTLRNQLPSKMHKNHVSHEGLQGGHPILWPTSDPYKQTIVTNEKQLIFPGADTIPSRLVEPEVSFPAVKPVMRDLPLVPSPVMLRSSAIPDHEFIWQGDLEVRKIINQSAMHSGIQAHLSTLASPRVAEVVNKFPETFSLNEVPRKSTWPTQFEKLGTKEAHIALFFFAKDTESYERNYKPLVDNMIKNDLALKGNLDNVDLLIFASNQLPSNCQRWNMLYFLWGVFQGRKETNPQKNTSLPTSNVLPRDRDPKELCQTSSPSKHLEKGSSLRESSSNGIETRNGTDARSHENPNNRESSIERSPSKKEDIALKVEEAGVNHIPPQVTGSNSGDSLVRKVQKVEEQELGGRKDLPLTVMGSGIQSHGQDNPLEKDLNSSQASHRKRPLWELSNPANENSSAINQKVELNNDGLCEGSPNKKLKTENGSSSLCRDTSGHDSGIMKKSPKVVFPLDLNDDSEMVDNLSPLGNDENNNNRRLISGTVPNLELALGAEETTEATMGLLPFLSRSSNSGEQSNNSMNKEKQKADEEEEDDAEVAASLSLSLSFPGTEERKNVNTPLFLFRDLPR

T4: ASI1-IMMUNO… PROTEIN 3 (AIPP3), epitope-tagged in transgenic Arabidopsis (Arabidopsis) (UniProt Q8RXT5)
T4 sequence: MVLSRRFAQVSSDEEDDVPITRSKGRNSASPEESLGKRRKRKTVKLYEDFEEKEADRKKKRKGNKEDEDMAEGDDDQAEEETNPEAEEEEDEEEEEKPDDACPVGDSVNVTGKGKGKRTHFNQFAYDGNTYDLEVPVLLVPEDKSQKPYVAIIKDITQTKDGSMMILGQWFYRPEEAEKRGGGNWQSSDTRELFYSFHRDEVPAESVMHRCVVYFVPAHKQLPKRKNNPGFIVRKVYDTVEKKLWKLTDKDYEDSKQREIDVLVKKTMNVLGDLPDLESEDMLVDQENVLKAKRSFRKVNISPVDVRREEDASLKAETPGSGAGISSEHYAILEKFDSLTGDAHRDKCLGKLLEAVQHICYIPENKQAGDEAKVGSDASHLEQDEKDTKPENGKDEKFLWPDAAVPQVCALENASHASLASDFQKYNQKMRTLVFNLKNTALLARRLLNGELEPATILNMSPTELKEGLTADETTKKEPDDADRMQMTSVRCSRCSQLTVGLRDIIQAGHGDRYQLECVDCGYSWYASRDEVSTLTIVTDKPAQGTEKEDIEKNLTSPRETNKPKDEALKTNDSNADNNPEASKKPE


How the values were obtained:
Assay in all cases: affinity purification with mass spectrometry; total proteins of inflorescence tissues of epitope-tagged transgenic plants in IP buffer (50 mM Tris-HCl pH 7.6, 150 mM NaCl, 5 mM MgCl2, 10% glycerol, 0.1% NP-40, 0.5 mM DTT), precipitated with anti-Flag or anti-Myc antibodies 2 h at 4 °C, five washes, MS
[1] = biological target: T1, CPL2, epitope-tagged in transgenic Arabidopsis (Arabidopsis)
[2] = biological target: T2, AIPP2, epitope-tagged in transgenic Arabidopsis (Arabidopsis)
[3] = biological target: T3, PARALOG OF AIPP2 (PAIPP2), epitope-tagged in transgenic Arabidopsis (Arabidopsis)
[4] = biological target: T4, ASI1-IMMUNO… PROTEIN 3 (AIPP3), epitope-tagged in transgenic Arabidopsis (Arabidopsis)

Row | binding [1] | binding [2] | binding [3] | binding [4] | Binder
1 | binds | binds | binds |  | ASI1-IMMUNO… PROTEIN 3 (AIPP3), epitope-tagged in transgenic Arabidopsis (protein, UniProt Q8RXT5 1-587) MVLSRRFAQVSSDEEDDVPITRSKGRNSASPEESLGKRRKRKTVKLYEDFEEKEADRKKKRKGNKEDEDMAEGDDDQAEEETNPEAEEEEDEEEEEKPDDACPVGDSVNVTGKGKGKRTHFNQFAYDGNTYDLEVPVLLVPEDKSQKPYVAIIKDITQTKDGSMMILGQWFYRPEEAEKRGGGNWQSSDTRELFYSFHRDEVPAESVMHRCVVYFVPAHKQLPKRKNNPGFIVRKVYDTVEKKLWKLTDKDYEDSKQREIDVLVKKTMNVLGDLPDLESEDMLVDQENVLKAKRSFRKVNISPVDVRREEDASLKAETPGSGAGISSEHYAILEKFDSLTGDAHRDKCLGKLLEAVQHICYIPENKQAGDEAKVGSDASHLEQDEKDTKPENGKDEKFLWPDAAVPQVCALENASHASLASDFQKYNQKMRTLVFNLKNTALLARRLLNGELEPATILNMSPTELKEGLTADETTKKEPDDADRMQMTSVRCSRCSQLTVGLRDIIQAGHGDRYQLECVDCGYSWYASRDEVSTLTIVTDKPAQGTEKEDIEKNLTSPRETNKPKDEALKTNDSNADNNPEASKKPE
2 |  | binds | binds | binds | CPL2, epitope-tagged in transgenic Arabidopsis (enzyme, UniProt Q5YDB5 1-770) MNRLGHKSVVYHGDLRLGELDVNHVSSSHEFRFPNDEIRIHHLSPAGERCPPLAILQTIASFAVRCKLESSAPVKSQELMHLHAVCFHELKTAVVMLGDEEIHLVAMPSKEKKFPCFWCFSVPSGLYDSCLRMLNTRCLSIVFDLDETLIVANTMKSFEDRIEALKSWISREMDPVRINGMSAELKRYMDDRMLLKQYIDNDYAFDNGVLLKAQPEEVRPTSDGQEKVCRPVIRLPEKNTVLTRIKPEIRDTSVLVKLRPAWEELRSYLTAKTRKRFEVYVCTMAERDYALEMWRLLDPEAHLISLKELRDRIVCVKPDAKKSLLSVFNGGICHPKMAMVIDDRMKVWEDKDQPRVHVVSAYLPYYAPQAETALVVPHLCVARNVACNVRGYFFKEFDESLMSSISLVYYEDDVENLPPSPDVSNYVVIEDPGFASNGNINAPPINEGMCGGEVERRLNQAAAADHSTLPATSNAEQKPETPKPQIAVIPNNASTATAAALLPSHKPSLLGAPRRDGFTFSDGGRPLMMRPGVDIRNQNFNQPPILAKIPMQPPSSSMHSPGGWLVDDENRPSFPGRPSGLYPSQFPHGTPGSAPVGPFAHPSHLRSEEVAMDDDLKRQNPSRQTTEGGISQNHLVSNGREHHTDGGKSNGGQSHLFVSALQEIGRRCGSKVEFRTVISTNKELQFSVEVLFTGEKIGIGMAKTKKDAHQQAAENALRSLAEKYVAHVAPLARETEKGPENDNGFLWESSEDVSNKGLEEEAPKENISEL
